Results on 53 variants are retold here after the supplement of paper PMC7125110.

± gives the standard error. Many entries were measured with a wide error.

The chains are these.
B1: glmS ribozyme (parent)
chain: AUAAAAGCGCCAGAACUACAGAAAUGUAGUUGACGAGGAGGAGGUUUAUCGAAUUUUCGGCGGAUGCCUCCAAA

In one series the parent is B1. Kind of series: kcat; higher = faster cleavage; RNA array. As to conditions: with glucosamine-6-phosphate. A digest of the protocol: (§1)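 Weighted Michaelis–Menten fits across concentrations supplied kcat and KM, based on kobs from one- or two-exponential decay fits to normalised per-tile medians. The data came from barcoded ribozyme variants transcribed in situ by E. coli RNA polymerase on sequenced MiSeq chips and tracked at 37 °C by a hybridised Cy3 probe. Glucosamine-6-phosphate (40 μM to 10 mM) in HEPES/KCl/Mg(OAc)2 buffer was flowed in.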
By kcat is commonly meant the number of substrate molecules converted per active site and unit of time at saturation. Take G40C C68U: the kcat amounted to 2.62e-05 ± 1.4e-05 s⁻¹.
Same read-out and setting: then G38U C68A, with 3.5e-05 ± 2.9e-05 s⁻¹; and G38U C68G, with 0.000246 ± 5.7e-05 s⁻¹.
Still for that read-out and setting: then G44U, with 0.000429 ± 5.3e-05 s⁻¹; and U47G C71U, with 0.00207 ± 0.001 s⁻¹; and U46C C68A, with 5.05e-05 ± 3e-05 s⁻¹.
Consider U54A U65A, for which the kcat worked out at 0.00834 ± 0.0013 s⁻¹.
The same measure, in the same setting: then A48G C67A, with 7.17e-05 ± 2.1e-06 s⁻¹.
Turning to A52G, the catalytic constant (kcat) was 0.00319 ± 0.00046 s⁻¹.
With U47G U54C, the catalytic constant (kcat) worked out at 0.0127 ± 0.0066 s⁻¹.
Same read-out and setting: the result for C50U C67A reads 3.06e-05 ± 1.8e-05 s⁻¹; that for U47A C50U, 9.64e-05 ± 5.7e-05 s⁻¹; that for C50U U65G, less than 1e-05 s⁻¹.
The same measure, in the same setting: the result for U49G U55A reads 0.00113 ± 0.0001 s⁻¹; that for U45G U65G G66U U69C, 0.00339 ± 0.0019 s⁻¹; that for G40A C70A, 0.000241 ± 1.6e-05 s⁻¹.
Same read-out and setting: then A52G U56G, with 0.00246 ± 0.0016 s⁻¹.
Turning to A39U G43U, the kcat is 0.000561 ± 0.00011 s⁻¹.
The same measure, in the same setting: then A39C U69A, with 1.07e-05 ± 6.9e-06 s⁻¹; and U54C C71U, with 0.00647 ± 0.0042 s⁻¹; and A42G C50A, with 4.52e-05 ± 2.6e-06 s⁻¹.
Regarding A39U G66A, the kcat was 0.0156 ± 0.0094 s⁻¹.
As for U46C C71A, the kcat is 0.000545 ± 4.7e-05 s⁻¹.
As to U47C A53G, the kcat turned out to be 0.00605 ± 0.0032 s⁻¹.
Same read-out and setting: the result for A42U G43U C50G reads 4.35e-05 ± 2.7e-05 s⁻¹; that for C50U C70U C71A, 4.37e-05 ± 3.6e-05 s⁻¹.
Still for that read-out and setting: then U47A U56A, with 0.022 ± 0.021 s⁻¹; and U47A U56C, with 0.00368 ± 0.00095 s⁻¹; and U49A G59U, with 1.28e-05 ± 4.5e-06 s⁻¹.
The same measure, in the same setting: then U45G U47G, with 0.00796 ± 0.0073 s⁻¹; and A53G U57C, with 0.00102 ± 0.00075 s⁻¹.
Consider U46G G51U U56G U69G, for which the kcat turned out to be 3.25e-05 ± 3.2e-05 s⁻¹.
The same measure, in the same setting: then A42C C70U, with 1.24e-05 ± 3.3e-06 s⁻¹; and U47C U65G, with 0.00435 ± 0.0005 s⁻¹.
In the case of G44C C67U, the kcat came out at 0.00192 ± 0.00015 s⁻¹.
Same read-out and setting: then G40U U56A, with 0.00558 ± 0.0041 s⁻¹.
Still for that read-out and setting: then G38U U69A, with 2.33e-05 ± 1.2e-05 s⁻¹; and U54A C67A, with 0.00303 ± 0.0028 s⁻¹.
Still for that read-out and setting: then G43U U47A U55C, with 4.32e-05 ± 2.6e-05 s⁻¹; and U54C U55G, with 0.0129 ± 0.0076 s⁻¹.
For the variant U47G C50A, the kcat is 3.95e-05 ± 3.5e-05 s⁻¹.
With A53C G66C, the kcat was 0.000476 ± 8.1e-05 s⁻¹.
On the same count and under the same terms, then G51A C61G, with less than 1e-05 s⁻¹; and U47G A52U, with 0.000286 ± 1.4e-05 s⁻¹; and G41A A42C, with 4.51e-05 ± 1.7e-05 s⁻¹.
Still for that read-out and setting: then G40U U54G, with 0.00445 ± 0.0029 s⁻¹; and A53G G66A, with 0.0293 ± 0.014 s⁻¹; and U46G U56A, with 0.0015 ± 0.00084 s⁻¹.
Still for that read-out and setting: then U55A U69A, with 9.24e-05 ± 1e-05 s⁻¹.
Take A53C G59U: the kcat is less than 1e-05 s⁻¹.
The same measure, in the same setting: the result for U54G U56A reads 0.0949 ± 0.071 s⁻¹; that for U46G U65G, 0.00226 ± 0.00027 s⁻¹; that for G51A C71A, 1.9e-05 ± 9e-07 s⁻¹.

A further series covers variants of B1. Kind of series: self-cleavage kobs at 10000 uM GlcN6P; higher = faster cleavage; RNA array. To be noted: with glucosamine-6-phosphate. In short, it runs like this: as §1
For the variant G38U C68A, the “self-cleavage kobs at 10000 uM GlcN6P” value turned out to be 1.64e-05 ± 1.3e-05 s⁻¹.
The same measure, in the same setting: the result for A42G C50A reads 2.65e-05 ± 1.4e-05 s⁻¹; that for A42U G43U C50G, 2.33e-05 ± 2.2e-05 s⁻¹.
The same measure, in the same setting: then U46G G51U U56G U69G, with 2.58e-05 ± 1.7e-05 s⁻¹; and G38U U69A, with 1.95e-05 ± 1.6e-05 s⁻¹; and U47G C50A, with 2.33e-05 ± 2.2e-05 s⁻¹.

The variants in a further series derive from B1. Kind of series: KM; higher = weaker cofactor use; RNA array. To be noted: with glucosamine-6-phosphate. A digest of the protocol: as §1
In general, KM refers to the substrate concentration at which the rate is half of its maximum. G38U C68G: the Michaelis-Menten constant (KM) turned out to be 108 ± 52 µM.
On the same count and under the same terms, the result for G44U reads 2040 ± 470 µM; that for U47G C71U, 369 ± 300 µM; that for U54A U65A, 4300 ± 1100 µM.
As for A48G C67A, the KM is 10700 ± 550 µM.
Consider A52G, for which the KM is 4410 ± 790 µM.
The same measure, in the same setting: then U47G U54C, with 2920 ± 2400 µM; and C50U U65G, with 2490 ± 2000 µM; and U49G U55A, with 2740 ± 370 µM.
The same measure, in the same setting: the result for U45G U65G G66U U69C reads 8560 ± 7400 µM; that for G40A C70A, 350 ± 60 µM; that for A52G U56G, 7880 ± 6900 µM.
As to A39U G43U, the Michaelis constant (KM) is 1770 ± 600 µM.
The same measure, in the same setting: then U54C C71U, with 371 ± 340 µM; and A42G C50A, with 7070 ± 920 µM.
Same read-out and setting: the result for A39U G66A reads 3390 ± 2700 µM.
Same read-out and setting: the result for U46C C71A reads 811 ± 130 µM.
Take U47C A53G: the KM stood at 3040 ± 2100 µM.
The same measure, in the same setting: then U47A U56C, with 3940 ± 1500 µM.
Still for that read-out and setting: then A42C C70U, with 7630 ± 4400 µM; and U47C U65G, with 3840 ± 610 µM.
In the case of G44C C67U, the KM stood at 1700 ± 200 µM.
For the variant G40U U56A, the KM came to 8060 ± 7000 µM.
In the case of G43U U47A U55C, the KM stood at 13900 ± 14000 µM.
As to U54C U55G, the KM amounted to 1460 ± 1200 µM.
On the same count and under the same terms, the result for A53C G66C reads 2510 ± 780 µM; that for U47G A52U, 1950 ± 180 µM.
For G40U U54G, the KM turned out to be 2690 ± 2500 µM.
The same measure, in the same setting: the result for A53G G66A reads 2350 ± 1400 µM; that for U46G U56A, 1180 ± 860 µM.
Same read-out and setting: then U54G U56A, with 20500 ± 16000 µM.
Turning to U46G U65G, the KM was found to be 2130 ± 380 µM.
Turning to G51A C71A, the KM is 105 ± 32 µM.

In another series the parent is B1. Kind of series: self-cleavage kobs at 2500 uM GlcN6P; higher = faster cleavage; RNA array. To be noted: with glucosamine-6-phosphate. In short, it runs like this: as §1
As for G38U C68G, the “self-cleavage kobs at 2500 uM GlcN6P” value was 0.000391 ± 0.00022 s⁻¹.
With A48G C67A, the “self-cleavage kobs at 2500 uM GlcN6P” value stood at 1.36e-05 ± 1.3e-05 s⁻¹.
As for U47A C50U, the “self-cleavage kobs at 2500 uM GlcN6P” value was 2.01e-05 ± 1.1e-05 s⁻¹.
On the same count and under the same terms, then G38U U69A, with 2.08e-05 ± 1.9e-05 s⁻¹; and U46G U56A, with 0.000471 ± 0.00024 s⁻¹.

Another series covers variants of B1. Kind of series: self-cleavage kobs at 40 uM GlcN6P; higher = faster cleavage; RNA array. As to conditions: with glucosamine-6-phosphate. In short, it runs like this: as §1
As for G44U, the “self-cleavage kobs at 40 uM GlcN6P” value is less than 1e-05 s⁻¹.
On the same count and under the same terms, then U49G U55A, with 3.56e-05 ± 2.1e-05 s⁻¹; and A52G U56G, with 2.83e-05 ± 1.6e-05 s⁻¹; and U46C C71A, with 2.65e-05 ± 1.5e-05 s⁻¹.
The same measure, in the same setting: then U47A U56C, with 3.58e-05 ± 1.8e-05 s⁻¹; and U45G U47G, with 0.000452 ± 0.00023 s⁻¹; and U46G G51U U56G U69G, with 2.64e-05 ± 2.3e-05 s⁻¹.
Same read-out and setting: the result for G38U U69A reads 1.9e-05 ± 1.8e-05 s⁻¹.

Variants of B1 are the subject of the next series. Kind of series: self-cleavage kobs at 640 uM GlcN6P; higher = faster cleavage; RNA array. To be noted: with glucosamine-6-phosphate. A digest of the protocol:
as §1
As to U46C C68A, the “self-cleavage kobs at 640 uM GlcN6P” value was determined as 2e-05 ± 1.7e-05 s⁻¹.
The same measure, in the same setting: the result for U47A C50U reads 3.42e-05 ± 2.1e-05 s⁻¹.
The same measure, in the same setting: the result for A42U G43U C50G reads 0.000145 ± 7.3e-05 s⁻¹.

In a further series the parent is B1. Kind of series: self-cleavage kobs at 160 uM GlcN6P; higher = faster cleavage; RNA array. To be noted: with glucosamine-6-phosphate. In short, it runs like this:
as §1
For the variant U54A U65A, the “self-cleavage kobs at 160 uM GlcN6P” value turned out to be 0.000233 ± 0.00012 s⁻¹.
C50U C67A: the “self-cleavage kobs at 160 uM GlcN6P” value came to 1.94e-05 ± 1.9e-05 s⁻¹.
With A52G U56G, the “self-cleavage kobs at 160 uM GlcN6P” value stood at 2.46e-05 ± 1.5e-05 s⁻¹.
Still for that read-out and setting: then C50U C70U C71A, with 3.21e-05 ± 2e-05 s⁻¹; and U46G G51U U56G U69G, with 3.32e-05 ± 2.2e-05 s⁻¹; and U47C U65G, with 0.000193 ± 0.00012 s⁻¹.
Same read-out and setting: the result for G38U U69A reads 2.46e-05 ± 2.2e-05 s⁻¹; that for G40U U54G, 8.53e-05 ± 5.2e-05 s⁻¹.
